Results are given in words; binding and its absence hold for the method and conditions named. Some binding calls cover weakened binding; strength is not graded here. For some assays here: Where a sequence is shown, tags or fusion partners need not be part of it.
T1: Clec9a on mouse Flt3L induced dendritic cells (FL-DCs) (mouse (endogenous in Flt3L induced bone marrow DCs)) (UniProt Q8BRU4)
T1 sequence: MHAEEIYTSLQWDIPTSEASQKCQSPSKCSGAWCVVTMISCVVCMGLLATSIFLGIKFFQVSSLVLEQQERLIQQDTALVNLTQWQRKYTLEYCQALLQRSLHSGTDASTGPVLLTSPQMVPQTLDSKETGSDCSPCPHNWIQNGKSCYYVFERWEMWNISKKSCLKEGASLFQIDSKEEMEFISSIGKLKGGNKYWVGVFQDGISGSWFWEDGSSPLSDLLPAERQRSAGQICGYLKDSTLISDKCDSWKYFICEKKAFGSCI

T2: mouse Clec9a expressed on HEK-293T cells (pIRES2-EGFP-mClec9a) (mouse) (UniProt Q8BRU4)
T2 sequence: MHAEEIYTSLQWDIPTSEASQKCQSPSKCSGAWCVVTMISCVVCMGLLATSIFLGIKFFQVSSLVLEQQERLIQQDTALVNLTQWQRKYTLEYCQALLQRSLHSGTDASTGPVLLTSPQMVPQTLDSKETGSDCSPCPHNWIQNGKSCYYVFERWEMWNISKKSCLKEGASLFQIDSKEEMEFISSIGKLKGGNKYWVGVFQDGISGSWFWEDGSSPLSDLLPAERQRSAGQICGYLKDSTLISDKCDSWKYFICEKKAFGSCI


Assays:
[1] = biological target: T1, Clec9a on mouse Flt3L induced dendritic cells (FL-DCs) (mouse (endogenous in Flt3L induced bone marrow DCs)); experiment: flow cytometry on cells; biotinylated peptide incubated with FL-DCs (Flt3L induced bone marrow DCs) at 4°C for 30min, washed with FACS buffer containing 2mM EDTA, stained with streptavidin-PE; only the binder purified
[2] = biological target: T2, mouse Clec9a expressed on HEK-293T cells (pIRES2-EGFP-mClec9a) (mouse); experiment: flow cytometry on cells; biotinylated peptide incubated with HEK-293T cells transfected with pIRES2-EGFP-mClec9a (wild type or single alanine mutants) at 4°C for 30min, washed with FACS buffer containing 2mM EDTA, stained with streptavidin-PE; only the binder purified

Row | binding [1] | binding [2] | Binder
1 | no binding | – | RPHRNGGRDQTWGGGK (biotin on the C-terminal lysine (GGGK-biotin)) [biotinylated peptide RW]
2 | no binding | – | IKTGPASLQNPHGGGK (biotin on the C-terminal lysine (GGGK-biotin)) [biotinylated peptide IH]
3 | – | binds | WPRFHSSVFHTHGGGK (biotin on the C-terminal lysine (GGGK-biotin)) [WH-biotin (peptide WH with GGGK-biotin at the carboxyl terminal)]
4 | no binding | – | SAHNPSSLTGSRGGGK (biotin on the C-terminal lysine (GGGK-biotin)) [biotinylated peptide SR]
5 | – | no binding | GAGAAGGAGGGGGGGK (biotin on the C-terminal lysine (GGGK-biotin)) [GA-biotin (control peptide)]

— article PMC5130018 (2016)
